Measurements reported in PubChem BioAssay AID1224830 (NIAID, 2016)
The whole screen tested about 18,000 reagents; this is a part drawn at random. In the full data, about 2,900 (16%) are marked active. 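Calls are made per well; low scores hint the gene aids the LPS response, high scores that it dampens it.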 A number with no mark means an inactive call. Repeated entries: four replicate wells of each siRNA pool.

Aim: 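Regulators of TLR4 signalling towards TNF-alpha in macrophage-like cells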 (primary screen)
System: human THP-1 monocytic leukaemia cells, TNF dual-luciferase reporter clone, PMA-differentiated to macrophage-like cells
Reagents: siRNA pool against human genes, 50 nM
Timing: LPS for 4 h, given about 3 days after siRNA transfection
Challenge: bacterial LPS (TLR4 ligand), 10 ng/ml
Detection: 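Ratio of firefly to renilla light, scaled to the plate median and expressed as a robust z-score per replicate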
Direction: TNF reporter robust z-score: higher = stronger TNF reporter response to LPS
Call rule: 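a well is active when its z-score exceeds 2.8 or falls below -1.5; control wells carry no call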

| Target gene | TNF reporter robust z-score |
| --- | --- |
| DRC7 | -0.52 |
| DRC7 | 0.25 |
| DRC7 | 0.05 |
| DRC7 | 0.46 |
| NOX4 | 1.7 |
| NOX4 | 2.18 |
| NOX4 | 0.79 |
| NOX4 | 2.31 |
| SKAP1 | -1.19 |
| SKAP1 | -1.17 |
| SKAP1 | -1.33 |
| SKAP1 | -0.27 |
| GPC1 | -0.47 |
| GPC1 | -0.24 |
| GPC1 | -0.75 |
| GPC1 | -0.03 |
| MSC | -0.93 |
| MSC | -0.36 |
| MSC | -0.6 |
| MSC | -0.87 |
| REC8 | -0.92 |
| REC8 | -0.39 |
| REC8 | -0.32 |
| REC8 | -0.8 |
| LSM14A | 1.11 |
| LSM14A | 1 |
| LSM14A | -0.47 |
| LSM14A | 0.76 |
| CA10 | -0.94 |
| CA10 | 0.34 |
| CA10 | -0.7 |
| CA10 | 0.9 |
| GALNTL6 | -0.81 |
| GALNTL6 | -0.61 |
| GALNTL6 | -0.31 |
| GALNTL6 | -0.36 |
| DNM3 | -1.1 |
| DNM3 | 0.29 |
| DNM3 | -0.32 |
| DNM3 | 0.47 |
| MRPL43 | -0.6 |
| MRPL43 | -0.24 |
| MRPL43 | -0.04 |
| MRPL43 | 0.44 |
| AIFM2 | 1.12 |
| AIFM2 | 1.25 |
| AIFM2 | 1 |
| AIFM2 | 1.79 |
| RNF185 | -1.4 |
| RNF185 | -2.04 (active) |
| RNF185 | -0.43 |
| RNF185 | 0.35 |
| COMMD6 | -0.53 |
| COMMD6 | 0.35 |
| COMMD6 | -0.12 |
| COMMD6 | 0.1 |

6 entries already listed, arranged by “TNF reporter robust z-score”, highest first.
| Target gene | TNF reporter robust z-score |
| --- | --- |
| REC8 | -0.32 |
| REC8 | -0.39 |
| MSC | -0.6 |
| REC8 | -0.8 |
| MSC | -0.87 |
| REC8 | -0.92 |

Additional entries follow.
| Target gene | TNF reporter robust z-score |
| --- | --- |
| LDHAL6A | -0.69 |
| LDHAL6A | 0.19 |
| LDHAL6A | 0.08 |
| LDHAL6A | 1.3 |
| LIN52 | -0.8 |
| LIN52 | -0.82 |
| LIN52 | -0.9 |
| LIN52 | -1.19 |
| PPP2R5C | 1.1 |
| PPP2R5C | 2.19 |
| PPP2R5C | 1.64 |
| PPP2R5C | 3.33 (active) |
| PDSS1 | -0.9 |
| PDSS1 | -1.22 |
| PDSS1 | -0.95 |
| PDSS1 | -1.04 |
| GJD2 | -0.87 |
| GJD2 | -0.46 |
| GJD2 | -0.97 |
| GJD2 | -1.07 |
| PAFAH2 | -0.89 |
| PAFAH2 | -0.99 |
| PAFAH2 | -1.08 |
| PAFAH2 | -0.39 |
| ATP23 | 1.06 |
| ATP23 | 0 |
| ATP23 | -0.85 |
| ATP23 | -0.23 |
| ADD1 | 0.88 |
| ADD1 | 1.68 |
| ADD1 | -0.33 |
| ADD1 | 1.02 |
| XYLB | -0.96 |
| XYLB | -0.6 |
| XYLB | 0.36 |
| XYLB | -0.84 |
| STXBP3 | -0.01 |
| STXBP3 | -0.16 |
| STXBP3 | -0.61 |
| STXBP3 | -0.69 |
| ADIPOR1 | 0.33 |
| ADIPOR1 | 1.43 |
| ADIPOR1 | -0.89 |
| ADIPOR1 | 3.5 (active) |
| P2RY13 | 0.04 |
| P2RY13 | -0.04 |
| P2RY13 | -0.23 |
| P2RY13 | 0.33 |
| CNKSR3 | 0.86 |
| CNKSR3 | -0.33 |
| CNKSR3 | -0.47 |
| CNKSR3 | -0.14 |
| PANX3 | -0.89 |
| PANX3 | -0.07 |
| PANX3 | -0.22 |
| PANX3 | -1.18 |
